These are yes or no findings as the source states them, for the method shown. In cells and extracts the contact can be indirect. Some results given as binding are weak or reduced against the parent protein; the word gives no strength.
Target: aryl hydrocarbon receptor (not stated (endogenous in pre-osteoclasts: mouse RAW264.7 cells or rat BMMs)) (UniProt P30561)
Test: co-IP; endogenous proteins of pre-osteoclasts, cells with or without tetrandrine or DIM; NP40 lysis buffer; immunoprecipitated with 1 ug of primary antibody against AhR or c-Cbl, protein A/G agarose, 4 h at 4 °C; beads washed three times with NP40 lysis buffer

The chains behind the UniProt entries cited, without tags or fusion partners. Residues count along the entry.
UniProt P30561, residues 10-848: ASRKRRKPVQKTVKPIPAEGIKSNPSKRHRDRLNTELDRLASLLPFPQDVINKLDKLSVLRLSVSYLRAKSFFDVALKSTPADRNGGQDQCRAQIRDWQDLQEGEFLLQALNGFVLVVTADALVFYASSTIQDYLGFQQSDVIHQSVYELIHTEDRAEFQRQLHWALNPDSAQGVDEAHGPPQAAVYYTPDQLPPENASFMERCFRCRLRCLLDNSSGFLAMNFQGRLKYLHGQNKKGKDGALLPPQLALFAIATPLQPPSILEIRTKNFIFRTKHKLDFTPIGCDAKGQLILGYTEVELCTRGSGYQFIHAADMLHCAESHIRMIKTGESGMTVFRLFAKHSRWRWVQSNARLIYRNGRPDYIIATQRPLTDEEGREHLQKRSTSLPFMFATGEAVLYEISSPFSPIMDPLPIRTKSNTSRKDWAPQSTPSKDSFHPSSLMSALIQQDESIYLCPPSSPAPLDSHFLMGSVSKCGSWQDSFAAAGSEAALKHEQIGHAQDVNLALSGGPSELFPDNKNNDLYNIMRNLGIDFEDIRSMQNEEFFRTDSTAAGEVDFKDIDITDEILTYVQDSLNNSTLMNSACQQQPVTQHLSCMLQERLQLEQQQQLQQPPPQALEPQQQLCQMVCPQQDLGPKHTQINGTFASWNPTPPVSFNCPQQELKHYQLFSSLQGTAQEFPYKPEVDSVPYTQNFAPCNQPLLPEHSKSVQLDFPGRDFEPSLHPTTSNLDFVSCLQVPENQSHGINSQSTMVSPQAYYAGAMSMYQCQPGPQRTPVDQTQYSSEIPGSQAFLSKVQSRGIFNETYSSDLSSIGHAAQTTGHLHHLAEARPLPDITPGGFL

Substance: E3 ubiquitin ligase c-Cbl (from UniProt P22682 1-913)
- binding: binds
